Results on one substance are retold here after article doi:10.1101/2025.09.01.673419.

These are yes or no findings as the source states them, for the method shown. A result given as binding can be weak or reduced; the word gives no strength.

For this assay, the target named is M. gallisepticum FtsZ, bacterial two-hybrid fusion (Mycoplasma gallisepticum) (UniProt Q7NB81). Briefly: two-hybrid.

In the case of “M. gallisepticum FtsK, bacterial two-hybrid fusion (from UniProt Q7NC25)”, the binding entry is on record as “binds”.
